Assay results taken from patent publication US20110217279A1.
No constants are given. Whether binding was seen depends on the method and setting. For some of these results: In cells and extracts the contact can be indirect. Some results given as binding are weak or reduced against the parent protein; the word gives no strength. Tags and fused reporters may be left off the sequences shown.

Chains of the proteins cited; added tags and fusions are not shown. Lines headed by an entry give the natural chain unless they say otherwise; changes in a name come on top.
UniProt Q05655: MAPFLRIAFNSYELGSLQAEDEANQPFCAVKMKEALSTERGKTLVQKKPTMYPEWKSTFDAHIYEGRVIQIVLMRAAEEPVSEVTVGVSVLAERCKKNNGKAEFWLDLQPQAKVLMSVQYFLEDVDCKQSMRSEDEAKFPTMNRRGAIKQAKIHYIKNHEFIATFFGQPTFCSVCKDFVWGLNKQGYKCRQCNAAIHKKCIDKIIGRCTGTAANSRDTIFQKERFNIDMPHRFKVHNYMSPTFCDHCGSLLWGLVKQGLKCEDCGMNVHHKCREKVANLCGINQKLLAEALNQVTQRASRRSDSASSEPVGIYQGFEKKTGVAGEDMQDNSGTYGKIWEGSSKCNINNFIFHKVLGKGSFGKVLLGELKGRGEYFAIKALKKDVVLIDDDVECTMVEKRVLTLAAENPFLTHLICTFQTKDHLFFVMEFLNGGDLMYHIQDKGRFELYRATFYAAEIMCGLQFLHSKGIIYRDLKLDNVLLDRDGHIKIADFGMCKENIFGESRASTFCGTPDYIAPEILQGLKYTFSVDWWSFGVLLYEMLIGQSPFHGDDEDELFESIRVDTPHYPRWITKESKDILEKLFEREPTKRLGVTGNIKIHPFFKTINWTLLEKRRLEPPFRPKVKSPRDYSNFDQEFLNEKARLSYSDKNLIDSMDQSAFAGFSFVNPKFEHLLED

Columns and labels:
[1] = target: human PKC-δ (protein kinase C delta), wild type, expressed in HEK293A cells (human) (UniProt Q05655); assay: GST pull-down from lysate of cells overexpressing PKC-δ, blot with anti-PKC-δ
[2] = target: human PKC-δ (protein kinase C delta), wild type, expressed in HEK293A cells (human) (UniProt Q05655); assay: GST pull-down from lysate of 293A cells overexpressing PKC-δ, blot with anti-PKC-δ
[3] = target: human PKC-δ (protein kinase C delta), wild type, expressed in HEK293A cells (human) (UniProt Q05655); assay: anti-PKC-δ immunoprecipitation of endogenous proteins, western blot
[4] = target: human PKC-δ (protein kinase C delta), wild type, expressed in HEK293A cells (human) (UniProt Q05655); assay: anti-PKC-δ immunoprecipitation of endogenous proteins, blot with anti-hBVR (FIG. 8C)
[5] = target: human PKC-δ (protein kinase C delta), wild type, expressed in HEK293A cells (human) (UniProt Q05655); assay: anti-HA co-immunoprecipitation, western blot (FIG. 2B)
[6] = target: human PKC-δ (protein kinase C delta), wild type, expressed in HEK293A cells (human) (UniProt Q05655); assay: anti-HA co-immunoprecipitation, western blot (FIG. 8A; also FIG. 8E with sc-RNA)
[7] = target: human PKC-δ (protein kinase C delta), wild type, expressed in HEK293A cells (human) (UniProt Q05655); assay: anti-HA co-immunoprecipitation from cells co-expressing HA-hBVR and PKC-δ, western blot
[8] = target: human PKC-δ (protein kinase C delta), wild type, expressed in HEK293A cells (human) (UniProt Q05655); assay: anti-HA co-immunoprecipitation from HEK-293A cells expressing PKC-δ and HA-hBVR, PMA treated
[9] = target: human PKC-δ (protein kinase C delta), wild type, expressed in HEK293A cells (human) (UniProt Q05655); assay: anti-HA co-immunoprecipitation from cells loaded with myristoylated peptides, blot with anti-PKC-δ (FIG. 9B)
[10] = target: human PKC-δ (protein kinase C delta), wild type, expressed in HEK293A cells (human) (UniProt Q05655); assay: anti-HA co-immunoprecipitation from cells expressing PKC-δ and HA-hBVR, PMA or IGF-1 treated, blot with anti-PKC-δ

Measured: binding

B1: GST-hBVR fusion protein (enzyme, not shown: a dimerising Fc or GST)
chain: MNAEPERKFGVVVVGVGRAGSVRMRDLRNPHPSSAFLNLIGFVSRRELGSIDGVQQISLEDALSSQEVEVAYICSESSSHEDYIRQFLNAGKHVLVEYPMTLSLAAAQELWELAEQKGKVLHEEHVELLMEEFAFLKKEVVGKDLLKGSLLFTSDPLEEDRFGFPAFSGISRLTWLVSLFGELSLVSATLEERKEDQYMKMTVCLETEKKSPLSWIEEKGPGLKRNRYLSFHFKSGSLENVPNVGVNKNIFLKDQNIFVQKLLGQFSEKELAAEKKRILHCLGLAEEIQKYCCSRK
binds: [1] | [2]

B2: human biliverdin reductase (hBVR), untagged wild type (enzyme)
chain: AEPERKFGVVVVGVGRAGSVRMRDLRNPHPSSAFLNLIGFVSRRELGSIDGVQQISLEDALSSQEVEVAYICSESSSHEDYIRQFLNAGKHVLVEYPMTLSLAAAQELWELAEQKGKVLHEEHVELLMEEFAFLKKEVVGKDLLKGSLLFTSDPLEEDRFGFPAFSGISRLTWLVSLFGELSLVSATLEERKEDQYMKMTVCLETEKKSPLSWIEEKGPGLKRNRYLSFHFKSGSLENVPNVGVNKNIFLKDQNIFVQKLLGQFSEKELAAEKKRILHCLGLAEEIQKYCCSRK
binds: [3] | [4]

B3: HA-tagged hBVR (enzyme, not shown: small tags and cut ends)
chain: B1 chain
binds: [5] | [6] | [7] | [8] | [9] | [10]
